These results are taken from article PMC8041807.

By UniProt entry, the sequences of proteins in these tests, tags left out.
UniProt P51149: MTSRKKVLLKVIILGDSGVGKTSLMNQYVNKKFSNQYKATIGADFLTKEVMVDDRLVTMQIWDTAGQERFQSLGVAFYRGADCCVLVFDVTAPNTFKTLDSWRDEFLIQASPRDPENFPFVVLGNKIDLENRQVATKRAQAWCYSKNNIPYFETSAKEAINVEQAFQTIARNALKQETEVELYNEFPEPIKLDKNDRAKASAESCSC

No constants are given. Whether binding was seen depends on the method and setting. In cells and extracts the contact can be indirect. Some binding calls cover weakened binding; strength is not graded here. Tags and fused reporters may be left off the sequences shown.

In one test the target is T1, FLAG-TRIM39 (human) (UniProt Q9HCM9).
T1 sequence: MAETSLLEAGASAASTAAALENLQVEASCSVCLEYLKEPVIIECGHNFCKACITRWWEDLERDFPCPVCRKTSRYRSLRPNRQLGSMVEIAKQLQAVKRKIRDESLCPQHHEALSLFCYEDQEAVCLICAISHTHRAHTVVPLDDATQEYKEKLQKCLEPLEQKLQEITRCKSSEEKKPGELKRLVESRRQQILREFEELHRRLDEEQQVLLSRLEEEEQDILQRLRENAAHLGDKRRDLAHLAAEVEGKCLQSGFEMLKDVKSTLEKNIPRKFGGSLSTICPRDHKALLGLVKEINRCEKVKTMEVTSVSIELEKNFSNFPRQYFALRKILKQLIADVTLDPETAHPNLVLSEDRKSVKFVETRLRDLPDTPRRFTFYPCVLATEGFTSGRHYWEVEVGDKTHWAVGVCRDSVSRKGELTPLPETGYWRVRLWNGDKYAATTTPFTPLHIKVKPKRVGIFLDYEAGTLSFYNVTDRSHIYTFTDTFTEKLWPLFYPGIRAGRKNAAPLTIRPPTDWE
Briefly: co-IP; HEK293T transfected with FLAG-TRIM39 for 48 h; total cell lysates immunoprecipitated with anti-FLAG or anti-Rab7 antibodies; western blot. Background: Immunoblotting shows a protein as a band on a membrane.

Test [1] addresses Rab7A (human (endogenous in HEK293T, LoVo, HCT116)) (UniProt P51149). The description is as above.

As for Rab7A (from UniProt P51149 1-207), in the test with FLAG-TRIM39 (human), the binding result is listed as “binds”.

B1: FLAG-TRIM39 (protein, UniProt Q9HCM9 1-518)
chain: MAETSLLEAGASAASTAAALENLQVEASCSVCLEYLKEPVIIECGHNFCKACITRWWEDLERDFPCPVCRKTSRYRSLRPNRQLGSMVEIAKQLQAVKRKIRDESLCPQHHEALSLFCYEDQEAVCLICAISHTHRAHTVVPLDDATQEYKEKLQKCLEPLEQKLQEITRCKSSEEKKPGELKRLVESRRQQILREFEELHRRLDEEQQVLLSRLEEEEQDILQRLRENAAHLGDKRRDLAHLAAEVEGKCLQSGFEMLKDVKSTLEKNIPRKFGGSLSTICPRDHKALLGLVKEINRCEKVKTMEVTSVSIELEKNFSNFPRQYFALRKILKQLIADVTLDPETAHPNLVLSEDRKSVKFVETRLRDLPDTPRRFTFYPCVLATEGFTSGRHYWEVEVGDKTHWAVGVCRDSVSRKGELTPLPETGYWRVRLWNGDKYAATTTPFTPLHIKVKPKRVGIFLDYEAGTLSFYNVTDRSHIYTFTDTFTEKLWPLFYPGIRAGRKNAAPLTIRPPTDWE
Turning to B1, the binding result in test [1] was “binds”.
